Laboratory results: PubChem BioAssay AID504808 (Drosophila RNAi Screening Center, 2011)
In all, the deposit lists about 21,000 reagents; this is an unselected part of those that have a named target and a result. Over the whole deposit, 18 (0.084%) got an active call. 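Raw counts without plate normalisation, one of two replicates; the ratio scores behind the calls were not deposited.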 Not given: the amount of reagent, the time to read-out.

Purpose: 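Genes whose loss lifts activity of an E2F-responsive reporter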 (primary screen)
Cells: Drosophila S2 cells
Knock-down reagent: long dsRNA against Drosophila genes
Detection: 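Firefly luciferase driven by E2F sites, normalised to Renilla luciferase on the same minimal promoter, measured by plate reader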
Scale: E2F firefly: higher = more E2F reporter activity; Renilla normaliser: higher = more normaliser reporter signal
Hit rule: 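a knock-down counted as active when the firefly/Renilla E2F signal rose above 50%, a threshold chosen arbitrarily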

Yp1 [DRSC18731] | E2F firefly, rep 1 = 1.14e5; Renilla normaliser, rep 1 = 5973; Call = inactive
sif [DRSC08759] | E2F firefly, rep 1 = 1.41e5; Renilla normaliser, rep 1 = 4777; Call = inactive
sif [DRSC11395] | E2F firefly, rep 1 = 80048; Renilla normaliser, rep 1 = 3196; Call = inactive
CG11737 [DRSC14364] | E2F firefly, rep 1 = 1.42e5; Renilla normaliser, rep 1 = 6557; Call = inactive
CG4390 [DRSC15572] | E2F firefly, rep 1 = 79755; Renilla normaliser, rep 1 = 3835; Call = inactive
CG33474 [DRSC05218] | E2F firefly, rep 1 = 1.14e5; Renilla normaliser, rep 1 = 4338; Call = inactive
fun (retired record) [DRSC12300] | E2F firefly, rep 1 = 68271; Renilla normaliser, rep 1 = 3452; Call = inactive
ref(2)P [DRSC03601] | E2F firefly, rep 1 = 98570; Renilla normaliser, rep 1 = 4534; Call = inactive
Acbp6 [DRSC10217] | E2F firefly, rep 1 = 99844; Renilla normaliser, rep 1 = 3168; Call = inactive
CG7164 [DRSC03018] | E2F firefly, rep 1 = 1.41e5; Renilla normaliser, rep 1 = 4676; Call = inactive

Next part; the last 2 above are carried over.
Acbp6 [DRSC10217] | E2F firefly, rep 1 = 99844; Renilla normaliser, rep 1 = 3168; Call = inactive
CG7164 [DRSC03018] | E2F firefly, rep 1 = 1.41e5; Renilla normaliser, rep 1 = 4676; Call = inactive
Ret [DRSC03409] | E2F firefly, rep 1 = 87122; Renilla normaliser, rep 1 = 3885; Call = inactive
Ret [DRSC03410] | E2F firefly, rep 1 = 97698; Renilla normaliser, rep 1 = 4139; Call = inactive
CG13559 [DRSC04197] | E2F firefly, rep 1 = 99914; Renilla normaliser, rep 1 = 3832; Call = inactive
LanA [DRSC11207] | E2F firefly, rep 1 = 63644; Renilla normaliser, rep 1 = 2892; Call = inactive
CG14106 [DRSC10109] | E2F firefly, rep 1 = 1.26e5; Renilla normaliser, rep 1 = 7376; Call = inactive
PKD [DRSC16200] | E2F firefly, rep 1 = 1.43e5; Renilla normaliser, rep 1 = 7127; Call = inactive
CG18304 [DRSC02664] | E2F firefly, rep 1 = 1.52e5; Renilla normaliser, rep 1 = 5704; Call = inactive
Obp58c [DRSC04166] | E2F firefly, rep 1 = 1.05e5; Renilla normaliser, rep 1 = 4688; Call = inactive
Rrp1 [DRSC00784] | E2F firefly, rep 1 = 1.55e5; Renilla normaliser, rep 1 = 5215; Call = inactive
